PubChem BioAssay AID493014 (National Center for Advancing Translational Sciences (NCATS), 2011)
Out of some 340,000 compounds screened, about 170 (0.05%) were called active. The shares of active, inactive and inconclusive entries below differ from those in the screen. Calls follow the shape of the dose curve; as a rule, active = well fitted inhibition curve with a large enough effect in the signal ratio, with a control signal flat (not every such curve was filed as active); inconclusive = small, poorly fitted or top-dose-only effect, or effect the other way, or a change in a side signal; inactive = flat fitted curve, though single readings scatter; the % refers to the signal ratio. Potencies of inconclusive entries are doubtful fits and often do not repeat.

Assay: qHTS Assay to Find Inhibitors of Chronic Active B-Cell Receptor Signaling;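 as to activity change, negative = inhibition: plate controls were basal doxycycline-induced cells for no effect and cells given 10 µM MG132 for full effect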
Conditions: ABC-DLBCL IkBa-CBG/CBR reporter, luminescence ratio (green luciferase fused to IkBa over red control in TMD8 lymphoma cells), 4 h
In short: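 Compounds up to 46 uM were incubated four hours with TMD8 cells whose green CBG68 luciferase is fused to IkappaBalpha; red CBR luminescence normalised the signal, and concentration-effect curves were fitted to fusion, red and ratio data.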

[1] = activity change, negative = inhibition: at 46.1 µM (top of the series)
Potency is read from the fitted curve at half-maximal effect.

## O=C(Nc1ccccc1)C1=C[C@@H](c2csc3ccccc23)C[C@@H](OCc2ccc(CO)cc2)O1
[1]
  Potency: inconclusive: 25.1 µM [falling, single point]

## COC(=O)c1cc(NC(=O)COC(=O)C2CCC2)cc(C(=O)OC)c1
[1]
  activity change, negative = inhibition: inconclusive: 15.5%

## COc1ccc(CCNC(=S)NC(=O)c2ccccc2)cc1OC
[1]
  activity change, negative = inhibition: inconclusive: -1.72%

## CCOC(=O)c1cnc(-c2ccccc2O)nc1Cl
[1]
  Potency: inconclusive: 2.82 µM [falling, partial curve, poor fit]

## CCc1ccc2c(c1)/C(=C/C(=O)c1cccs1)C(=O)N2
[1]
  activity change, negative = inhibition: inconclusive: 12.8%

## O=C(NNC(=O)C1CC=CCC1)c1ccccc1Cl (stereo unspecified)
[1]
  Potency: inconclusive: 31.6 µM [falling, partial curve, poor fit]

## Cc1onc(-c2c(F)cccc2Cl)c1C(=O)ONC(=O)c1ccco1
[1]
  activity change, negative = inhibition: inconclusive: 4.2%

## Cc1ccc(NC(=S)N/N=C/c2ccc(Cl)c([N+](=O)[O-])c2)cc1
[1]
  activity change, negative = inhibition: inconclusive: 8.12%

## Cn1ncc(Cl)c1C(=O)NCc1ccco1
[1]
  activity change, negative = inhibition: inconclusive: -23.4%

## O=C(CCCc1nc2ccccc2s1)Nc1ccccc1
[1]
  activity change, negative = inhibition: inconclusive: 16.6%

## CSc1ccccc1NC(=O)CN(c1cc(C)cc(C)c1)S(C)(=O)=O
[1]
  activity change, negative = inhibition: inconclusive: 6.1%

## C/C(=N\NC(=O)c1ccn(C)n1)c1ccc(NC(=O)C2CCCC2)cc1
[1]
  Potency: inconclusive: 20.6 µM [falling, single point]

## N#C/C(=C\Nc1ccc(Cl)cn1)S(=O)(=O)c1ccccc1
[1]
  activity change, negative = inhibition: inactive

## Cc1csc(SCC(=O)Nc2cccc3nsnc23)n1
[1]
  activity change, negative = inhibition: inconclusive: -25.7%

## Cc1nnsc1C(=O)N(Cc1ccccc1)C(C)C
[1]
  activity change, negative = inhibition: inconclusive: 1.19%

## O=C(COC(=O)c1cc([N+](=O)[O-])ccc1N1CCOCC1)Nc1ccc(Cl)cc1
[1]
  Potency: inconclusive: 31.6 µM [falling, single point]

## O=C(CN(c1ccccc1)S(=O)(=O)c1ccccc1[N+](=O)[O-])Nc1cccnc1
[1]
  activity change, negative = inhibition: inconclusive: 11.2%

## C=CCNC(=O)c1ccccc1NS(=O)(=O)c1ccc(SC)cc1
[1]
  activity change, negative = inhibition: inconclusive: -6.59%

## COC(=O)c1nn(-c2ccc(-c3ccccc3)cc2)cc1O
[1]
  Potency: inconclusive: 14.1 µM [falling, single point]

## COc1ccc(-c2cc(C(=O)Nc3cc(Br)ccc3O)no2)cc1
[1]
  activity change, negative = inhibition: inconclusive: -3.86%

## CC1CCCCN1Cc1c(O)ccc2c(=O)c(-c3nc4ccccc4s3)c(N)oc12 (stereo unspecified)
[1]
  activity change, negative = inhibition: inconclusive: -0.213%

## COC(=O)N/N=C\c1ccccc1OC/C=C/c1ccccc1
[1]
  activity change, negative = inhibition: inconclusive: -5.13%

## O=c1nc(Nc2ccc(Br)cc2)sc2ccc([N+](=O)[O-])cc12
[1]
  Potency: inconclusive: 14.1 µM [falling, partial curve, poor fit]

## O=C(Nc1ccccc1C(F)(F)F)NC1CCCCC1
[1]
  activity change, negative = inhibition: inconclusive: 3.42%

## C=CCOC(=O)c1[nH]c2c(c1C)C(=O)CC(c1ccco1)C2 (stereo unspecified)
[1]
  Potency: inconclusive: 16.4 µM [falling, single point]

## CC1CCCCN1S(=O)(=O)c1ccc(N(C(=O)c2cnccn2)C(C(=O)NC2CCCCC2)c2cccs2)cc1 (stereo unspecified)
[1]
  activity change, negative = inhibition: inconclusive: -11.8%

## COc1ccc(C(=O)N2CCC(n3c(C)nc4cc(F)ccc43)CC2)cc1OC
[1]
  activity change, negative = inhibition: inconclusive: -0.806%

## O=C(NC1=NCCS1)c1ccc(Cl)s1
[1]
  activity change, negative = inhibition: inconclusive: 11.9%

## Cc1cc(N2CCOCC2)nc(N2CCOCC2)n1
[1]
  Potency: inconclusive: 35.5 µM [falling, partial curve, poor fit]

## Cc1ccc(NC(=O)c2cc(C(=O)c3cc(Cl)ccc3O)cn(-c3ccc(C)cc3)c2=O)cc1
[1]
  activity change, negative = inhibition: inactive

## Cc1cc(C)n(-c2ccc(C(=O)OCC(=O)Nc3ccccc3[N+](=O)[O-])cc2)n1
[1]
  activity change, negative = inhibition: inconclusive: 4.72%

## O=C(N[C@@H](Cc1ccccc1)c1nc2ccccc2[nH]1)c1cc([N+](=O)[O-])ccc1Cl
[1]
  activity change, negative = inhibition: inconclusive: -8.84%

## CCOC(=O)c1cc(C#N)c(NCc2ccccc2)nc1C
[1]
  activity change, negative = inhibition: inconclusive: 1.58%

## CSc1c(C#N)c(N)nc2sc(C(=O)c3ccccc3)c(N)c12
[1]
  activity change, negative = inhibition: inactive

## O=C(CCC(=O)c1ccc(F)cc1)NCC1(N2CCCCC2)CCCCC1
[1]
  activity change, negative = inhibition: inactive

## Cc1cccc(-c2n[nH]c(S(C)(=O)=O)c2C#N)c1
[1]
  activity change, negative = inhibition: inconclusive: 6.15%

## Cc1oc(-c2ccccc2F)nc1CS(=O)(=O)CC(=O)N1CCN(c2ccccc2)CC1
[1]
  activity change, negative = inhibition: inconclusive: 4.93%

## COc1cc(/C=C/C(=O)CC(=O)/C=C/c2ccc(O)c(OC)c2)ccc1O
[1]
  Potency: inconclusive: 9.2 µM [falling, partial curve]

## CC(C)(C)C(=O)Nc1ccc(C(=O)NNC(=O)Cc2ccccc2)cc1
[1]
  activity change, negative = inhibition: inconclusive: 12.9%

## CCOc1ccc(NC(=O)Cn2c(=O)n(CCCC(=O)NCCc3ccc(Cl)cc3)c(=O)c3ccccc32)cc1
[1]
  activity change, negative = inhibition: inactive

## CN(C)CC(C)(C)CNS(=O)(=O)c1ccc(Cl)c(Cl)c1
[1]
  activity change, negative = inhibition: inconclusive: -8.43%
At 46.1 µM (top of the series)
  activity change, negative = inhibition: inactive: 1.93%

## CCOC(=O)c1c(-c2cccc([N+](=O)[O-])c2)csc1NC(=O)C1CCCCC1
[1]
  activity change, negative = inhibition: inconclusive: 4.65%

## Cc1ccc(/C=N/NC(=O)c2cc(-c3cccnc3)nc3ccccc23)cc1
[1]
  Potency: inconclusive: 6.31 µM [falling, full curve]

## COc1cc(/C=C2\SC(N)=NC2=O)ccc1O
[1]
  activity change, negative = inhibition: inconclusive: 13.9%

## COc1ccc2c(c1)c1ncn(Cc3ccc(F)cc3)c(=O)c1n2C
[1]
  activity change, negative = inhibition: inconclusive: 5.04%

## N#C/C(=C\C=C\c1ccccc1[N+](=O)[O-])C(=O)NCc1ccccc1
[1]
  Potency: inconclusive: 7.08 µM [cytotoxic, partial curve]

## Cc1c(Cl)cccc1Nc1nn2c(=O)c3ccccc3nc2s1
[1]
  Potency: inconclusive: 0.631 µM [rising, full curve, poor fit]

## C[N+](C)(C)CCOC(=O)C1(c2ccccc2)CCCC1
[1]
  activity change, negative = inhibition: inconclusive: -0.985%

## CCOC(=O)c1ccc(N2CCOCC2)c(NS(=O)(=O)c2ccc(F)cc2)c1
[1]
  activity change, negative = inhibition: inactive

## COc1ccc(CNS(=O)(=O)c2c(C(=O)N3CCCCC3)c(C)n(C)c2C)cc1
[1]
  activity change, negative = inhibition: inconclusive: -0.567%
